Measured values reported in article PMC7862700.
Only a part is listed here, and it is no random draw. For part of these data: At the low end of the ranking the order means little. The list shows a part of the results. For part of these data: Construct or isoform of the protein are uncertain.

Protein sequences, listed by entry. Tags and fused reporters are not part of them. Lines headed by an entry give the natural chain unless they say otherwise; changes in a name come on top.
UniProt P32519: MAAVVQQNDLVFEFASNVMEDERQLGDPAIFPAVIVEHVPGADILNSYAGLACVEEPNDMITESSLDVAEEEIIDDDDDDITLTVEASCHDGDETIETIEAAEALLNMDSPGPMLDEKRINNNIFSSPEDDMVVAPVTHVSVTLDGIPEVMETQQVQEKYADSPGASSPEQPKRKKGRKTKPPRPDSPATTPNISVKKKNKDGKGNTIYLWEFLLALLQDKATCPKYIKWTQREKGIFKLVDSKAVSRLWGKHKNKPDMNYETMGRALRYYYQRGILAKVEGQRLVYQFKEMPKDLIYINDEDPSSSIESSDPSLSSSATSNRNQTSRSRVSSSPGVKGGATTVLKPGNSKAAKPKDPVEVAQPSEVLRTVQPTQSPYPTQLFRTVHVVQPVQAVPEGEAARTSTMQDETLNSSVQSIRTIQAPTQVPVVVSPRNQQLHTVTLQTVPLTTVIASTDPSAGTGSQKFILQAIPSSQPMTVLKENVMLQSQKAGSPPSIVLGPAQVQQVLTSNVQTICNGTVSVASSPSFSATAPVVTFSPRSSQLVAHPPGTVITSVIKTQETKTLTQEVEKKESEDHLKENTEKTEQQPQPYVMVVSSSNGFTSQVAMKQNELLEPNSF
UniProt P50549: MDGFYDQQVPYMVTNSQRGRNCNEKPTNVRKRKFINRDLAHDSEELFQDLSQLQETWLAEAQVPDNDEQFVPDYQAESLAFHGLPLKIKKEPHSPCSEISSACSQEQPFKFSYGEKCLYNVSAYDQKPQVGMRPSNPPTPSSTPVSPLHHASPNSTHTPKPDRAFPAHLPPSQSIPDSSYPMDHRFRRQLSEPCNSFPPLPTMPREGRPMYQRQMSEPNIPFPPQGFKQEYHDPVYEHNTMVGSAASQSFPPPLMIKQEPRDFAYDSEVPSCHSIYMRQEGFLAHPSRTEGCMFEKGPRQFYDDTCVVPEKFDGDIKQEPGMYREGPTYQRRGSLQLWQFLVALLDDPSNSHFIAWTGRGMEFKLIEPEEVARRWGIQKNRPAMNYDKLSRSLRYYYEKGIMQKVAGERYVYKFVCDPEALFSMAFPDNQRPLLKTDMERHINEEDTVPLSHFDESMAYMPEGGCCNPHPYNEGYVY

Key:
Assay in all cases: DAPPL (digital affinity profiling via proximity ligation, sequencing)
Conditions in all cases: 10 mM Tris-HCl pH 7.5, 50 mM NaCl, 1 mM DTT, 4% glycerol, room temperature, 30 min; GST-TFs on glutathione beads, 16-mer random dsDNA library, 0.1% …; high values mean tight binding; double strand, one strand shown; scale: fold enrichment (6-mer frequency, TF over GST control)
ERG = biological target: T1, ERG (UniProt P11308)
T1 sequence: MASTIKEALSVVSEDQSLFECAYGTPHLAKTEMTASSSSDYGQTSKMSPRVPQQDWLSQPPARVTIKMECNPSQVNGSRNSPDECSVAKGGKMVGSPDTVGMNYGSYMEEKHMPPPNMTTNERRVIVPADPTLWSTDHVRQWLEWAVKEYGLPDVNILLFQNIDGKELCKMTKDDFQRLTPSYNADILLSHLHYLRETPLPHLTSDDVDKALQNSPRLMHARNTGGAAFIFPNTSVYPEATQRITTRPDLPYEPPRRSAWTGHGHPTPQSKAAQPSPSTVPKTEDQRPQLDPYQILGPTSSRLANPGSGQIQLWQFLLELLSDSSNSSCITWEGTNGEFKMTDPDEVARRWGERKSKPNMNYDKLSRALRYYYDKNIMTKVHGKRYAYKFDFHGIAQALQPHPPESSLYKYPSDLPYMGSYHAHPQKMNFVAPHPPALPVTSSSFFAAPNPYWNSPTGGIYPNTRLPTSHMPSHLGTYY

ELF1 = ELF1 (UniProt P32519)
ELK4 = biological target: T2, ELK4 (UniProt P28324-2)
T2 sequence: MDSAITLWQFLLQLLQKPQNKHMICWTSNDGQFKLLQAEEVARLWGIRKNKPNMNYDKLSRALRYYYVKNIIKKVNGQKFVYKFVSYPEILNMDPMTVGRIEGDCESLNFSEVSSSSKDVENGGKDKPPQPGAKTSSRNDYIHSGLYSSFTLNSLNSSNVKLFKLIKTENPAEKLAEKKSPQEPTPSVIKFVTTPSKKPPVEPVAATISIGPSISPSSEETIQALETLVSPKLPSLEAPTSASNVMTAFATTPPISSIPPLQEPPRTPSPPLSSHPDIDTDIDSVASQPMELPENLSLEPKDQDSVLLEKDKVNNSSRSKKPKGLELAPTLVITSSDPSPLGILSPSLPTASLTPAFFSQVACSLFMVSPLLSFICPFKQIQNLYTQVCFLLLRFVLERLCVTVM

ETV4 = biological target: T3, ETV4 (UniProt P43268)
T3 sequence: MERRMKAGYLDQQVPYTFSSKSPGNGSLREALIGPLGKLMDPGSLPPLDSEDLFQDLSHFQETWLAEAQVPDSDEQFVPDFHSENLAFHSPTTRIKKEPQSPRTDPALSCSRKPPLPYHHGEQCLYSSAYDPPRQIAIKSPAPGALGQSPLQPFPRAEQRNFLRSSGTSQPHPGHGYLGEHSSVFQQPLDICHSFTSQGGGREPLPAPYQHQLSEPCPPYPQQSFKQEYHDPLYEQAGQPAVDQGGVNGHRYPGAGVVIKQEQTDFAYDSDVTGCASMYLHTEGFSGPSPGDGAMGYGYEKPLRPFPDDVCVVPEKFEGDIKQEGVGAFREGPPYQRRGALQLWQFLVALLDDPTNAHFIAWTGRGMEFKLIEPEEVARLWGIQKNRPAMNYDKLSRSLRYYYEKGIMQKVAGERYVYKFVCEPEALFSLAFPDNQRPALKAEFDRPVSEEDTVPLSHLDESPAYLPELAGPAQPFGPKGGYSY

ETV1 = ETV1 (UniProt P50549)
ERF = biological target: T4, ERF (UniProt P50548)
T4 sequence: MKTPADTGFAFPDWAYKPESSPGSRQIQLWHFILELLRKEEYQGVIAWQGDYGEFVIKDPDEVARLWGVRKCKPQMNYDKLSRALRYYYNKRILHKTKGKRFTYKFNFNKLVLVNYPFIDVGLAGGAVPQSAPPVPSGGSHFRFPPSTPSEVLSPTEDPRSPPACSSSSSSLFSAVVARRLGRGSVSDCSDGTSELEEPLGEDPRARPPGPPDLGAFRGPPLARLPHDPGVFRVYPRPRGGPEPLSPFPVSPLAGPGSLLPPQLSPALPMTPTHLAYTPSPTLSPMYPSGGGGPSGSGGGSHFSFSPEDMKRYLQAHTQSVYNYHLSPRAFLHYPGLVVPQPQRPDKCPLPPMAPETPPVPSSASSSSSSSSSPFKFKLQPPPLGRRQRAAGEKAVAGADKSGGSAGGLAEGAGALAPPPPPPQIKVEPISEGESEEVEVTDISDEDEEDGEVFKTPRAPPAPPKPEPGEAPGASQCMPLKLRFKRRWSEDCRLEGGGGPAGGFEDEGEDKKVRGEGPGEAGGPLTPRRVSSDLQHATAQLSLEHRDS

Sequence	binding signal (ERG)	binding signal (ELF1)	binding signal (ELK4)	binding signal (ETV4)	binding signal (ETV1)	binding signal (ERF)
GGGACC	0.667	0.69	0.732	0.708	0.684	0.656
AAAGTG	0.911	0.948	0.893	0.904	0.884	0.822
CCAGCC	0.829	0.813	0.873	0.768	0.714	0.766
TGTGAA	0.794	0.834	0.86	0.808	0.941	0.779
AGCAAG	0.924	0.862	0.906	0.864	0.842	0.947
TAGAGT	0.751	0.75	0.874	0.74	0.771	0.795
AGGGCG	0.564	0.584	0.538	0.592	0.569	0.543
GCCGGT	0.627	0.675	0.653	0.634	0.69	0.644
CGAGGA	0.655	0.626	0.513	0.612	0.693	0.639
GGGAAG	0.864	0.748	0.829	0.836	0.902	0.802
CGGGGC	0.619	0.611	0.635	0.631	0.588	0.579
CGGTCA	0.826	0.811	0.767	0.828	0.826	0.806
AGACCA	0.626	0.62	0.617	0.672	0.623	0.626
AGTCTG	0.626	0.602	0.657	0.606	0.608	0.593
GATAGA	0.78	0.834	0.806	0.809	0.833	0.852
TGTGTC	0.834	0.755	0.807	0.755	0.767	0.861
AGGGGA	0.592	0.553	0.53	0.591	0.653	0.639
CGCATG	0.602	0.646	0.679	0.678	0.618	0.653
CAGTGT	0.681	0.717	0.72	0.708	0.653	0.766
GTGGGA	0.612	0.551	0.599	0.518	0.57	0.589

Copied from the list:
Entry of TGTGAA under binding signal (ETV1): 0.941
Entry of TAGAGT under binding signal (ERF): 0.795
